We go through 1 molecule from patent US20170233495A1.

Chains of the proteins cited; added tags and fusions are not shown. Lines headed by an entry give the natural chain unless they say otherwise; changes in a name come on top.
UniProt P14780: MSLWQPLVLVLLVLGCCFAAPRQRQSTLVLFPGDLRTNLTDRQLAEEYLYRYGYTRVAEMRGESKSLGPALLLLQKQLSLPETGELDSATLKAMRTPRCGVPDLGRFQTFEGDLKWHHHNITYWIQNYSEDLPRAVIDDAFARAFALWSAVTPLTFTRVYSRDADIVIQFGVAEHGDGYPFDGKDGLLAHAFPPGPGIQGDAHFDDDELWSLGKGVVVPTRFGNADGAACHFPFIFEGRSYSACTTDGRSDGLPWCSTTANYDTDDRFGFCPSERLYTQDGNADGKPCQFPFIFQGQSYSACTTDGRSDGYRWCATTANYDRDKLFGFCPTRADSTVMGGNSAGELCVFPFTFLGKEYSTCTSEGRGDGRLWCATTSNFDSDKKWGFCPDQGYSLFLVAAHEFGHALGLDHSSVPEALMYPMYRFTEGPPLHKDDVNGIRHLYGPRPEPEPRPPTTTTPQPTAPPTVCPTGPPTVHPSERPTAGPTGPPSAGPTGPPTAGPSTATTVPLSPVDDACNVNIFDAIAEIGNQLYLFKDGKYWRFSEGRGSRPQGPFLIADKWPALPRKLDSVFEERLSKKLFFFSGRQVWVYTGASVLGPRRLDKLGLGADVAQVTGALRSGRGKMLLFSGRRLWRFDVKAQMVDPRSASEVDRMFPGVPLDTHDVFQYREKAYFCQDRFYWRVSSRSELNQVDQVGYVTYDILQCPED

The target in experiment [1] is recombinant human proMMP9 (full length, latent form) (human) (UniProt P14780). The experiment is described as follows: SPR (BIAcore), antibody captured by anti-human Fc, pro-MMP9 titrated 4.7 to 150 nM in 2-fold steps. A general note: Surface plasmon resonance follows binding to a sensor surface in real time, without labels.
For experiment [2] the target is unchanged. Briefly: condition: less then 1% binding at 150 nM; KD estimated to be greater than 15 µM; SPR (BIAcore), antibody captured by anti-human Fc, pro-MMP9 titrated 4.7-150 nM; SPR (BIAcore), captured antibody, soluble pro-MMP9 titrated 4.7-150 nM; minimal signal.

No constants are given. Whether binding was seen depends on the method and setting.

B1: F20-VH-GL1-V4-V9/B08-VL-GL6c (antibody, human IgG4 S228P, V domains shown)
VH: EVQLVESGGGLVQPGRSLRLSCAASGFTFNDYPMHWVRQAPGKGLEWVSGISSRSGSVGYAESVKGRFTISRDNAKNSLYLQMNSLRAEDTALYYCARDKIYYGSGSYDFYYYYGMDVWGQGTTVTVSS
VL: QSALTQPASVSGSPGQSITISCTGTSNDVGAYNRVSWYQQHPGKAPKLMIYGVSNRPSGVSNRFSGSKSGNTASLTISGLQAEDEADFYCTSYSSSTTSYVVFGGGTKVTVL
Consider B1, for which the binding entry in experiment [1] is given as “no binding (tested: 150 nM)”; in experiment [2], “no binding”.
